Experimental data: doi:10.1101/2021.12.21.473719
Read-outs that look alike come from different tables or passages of the source. No constants are given. Whether binding was seen depends on the method and setting. Binding seen in cells or lysates may run through a third protein. Some binding calls cover weakened binding; strength is not graded here. For part of these data: Where a sequence is shown, tags or fusion partners need not be part of it. Each block holds one binder with its values, some of them ahead of it.

How the values were obtained:
[1] = biological target: T1, POPDC1-VN / POPDC1-VC (mouse POPDC1 with a half of Venus for BiFC) (mouse) (UniProt Q9ES83); experiment: split reporter
T1 sequence: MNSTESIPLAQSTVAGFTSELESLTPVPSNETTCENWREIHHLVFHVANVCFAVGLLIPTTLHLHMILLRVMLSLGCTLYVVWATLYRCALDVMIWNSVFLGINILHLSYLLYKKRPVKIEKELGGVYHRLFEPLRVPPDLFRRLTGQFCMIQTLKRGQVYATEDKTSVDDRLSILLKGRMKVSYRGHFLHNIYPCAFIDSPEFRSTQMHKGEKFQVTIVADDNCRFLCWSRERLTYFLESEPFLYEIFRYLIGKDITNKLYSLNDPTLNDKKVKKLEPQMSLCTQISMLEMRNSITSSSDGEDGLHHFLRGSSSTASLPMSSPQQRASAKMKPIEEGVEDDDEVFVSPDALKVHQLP

[2] = biological target: POPDC1-Myc (Popeye domain-containing protein 1, Myc-tagged) (mouse) (UniProt Q9ES83); experiment: proximity ligation
[3] = biological target: T2, POPDC2-Myc (mouse) (UniProt Q9ES82); experiment: proximity ligation
T2 sequence: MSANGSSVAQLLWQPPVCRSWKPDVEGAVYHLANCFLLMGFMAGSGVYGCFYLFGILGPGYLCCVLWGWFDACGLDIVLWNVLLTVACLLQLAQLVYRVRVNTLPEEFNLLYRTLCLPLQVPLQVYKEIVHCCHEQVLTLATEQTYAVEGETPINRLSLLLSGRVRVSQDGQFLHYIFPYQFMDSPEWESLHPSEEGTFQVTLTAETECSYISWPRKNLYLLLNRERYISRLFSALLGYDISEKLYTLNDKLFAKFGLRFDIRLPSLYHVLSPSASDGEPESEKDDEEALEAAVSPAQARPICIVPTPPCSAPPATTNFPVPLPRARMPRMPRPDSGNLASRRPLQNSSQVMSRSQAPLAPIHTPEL

[4] = biological target: POPDC1-Myc (Popeye domain-containing protein 1, Myc-tagged) (mouse) (UniProt Q9ES83); experiment: co-IP
[5] = biological target: T2, POPDC2-Myc (mouse); experiment: co-IP
[6] = biological target: POPDC1-Myc (Popeye domain-containing protein 1, Myc-tagged) (mouse) (UniProt Q9ES83); experiment: co-IP; remark: listed apart in the source
[7] = biological target: POPDC1-Myc (Popeye domain-containing protein 1, Myc-tagged) (mouse) (UniProt Q9ES83); experiment: co-IP; remark: listed apart in the source
[8] = biological target: T3, AC9-VN / AC9-VC (AC9 with a half of Venus for BiFC), O60503; experiment: split reporter; conditions: remark: other sources report otherwise
T3 chain: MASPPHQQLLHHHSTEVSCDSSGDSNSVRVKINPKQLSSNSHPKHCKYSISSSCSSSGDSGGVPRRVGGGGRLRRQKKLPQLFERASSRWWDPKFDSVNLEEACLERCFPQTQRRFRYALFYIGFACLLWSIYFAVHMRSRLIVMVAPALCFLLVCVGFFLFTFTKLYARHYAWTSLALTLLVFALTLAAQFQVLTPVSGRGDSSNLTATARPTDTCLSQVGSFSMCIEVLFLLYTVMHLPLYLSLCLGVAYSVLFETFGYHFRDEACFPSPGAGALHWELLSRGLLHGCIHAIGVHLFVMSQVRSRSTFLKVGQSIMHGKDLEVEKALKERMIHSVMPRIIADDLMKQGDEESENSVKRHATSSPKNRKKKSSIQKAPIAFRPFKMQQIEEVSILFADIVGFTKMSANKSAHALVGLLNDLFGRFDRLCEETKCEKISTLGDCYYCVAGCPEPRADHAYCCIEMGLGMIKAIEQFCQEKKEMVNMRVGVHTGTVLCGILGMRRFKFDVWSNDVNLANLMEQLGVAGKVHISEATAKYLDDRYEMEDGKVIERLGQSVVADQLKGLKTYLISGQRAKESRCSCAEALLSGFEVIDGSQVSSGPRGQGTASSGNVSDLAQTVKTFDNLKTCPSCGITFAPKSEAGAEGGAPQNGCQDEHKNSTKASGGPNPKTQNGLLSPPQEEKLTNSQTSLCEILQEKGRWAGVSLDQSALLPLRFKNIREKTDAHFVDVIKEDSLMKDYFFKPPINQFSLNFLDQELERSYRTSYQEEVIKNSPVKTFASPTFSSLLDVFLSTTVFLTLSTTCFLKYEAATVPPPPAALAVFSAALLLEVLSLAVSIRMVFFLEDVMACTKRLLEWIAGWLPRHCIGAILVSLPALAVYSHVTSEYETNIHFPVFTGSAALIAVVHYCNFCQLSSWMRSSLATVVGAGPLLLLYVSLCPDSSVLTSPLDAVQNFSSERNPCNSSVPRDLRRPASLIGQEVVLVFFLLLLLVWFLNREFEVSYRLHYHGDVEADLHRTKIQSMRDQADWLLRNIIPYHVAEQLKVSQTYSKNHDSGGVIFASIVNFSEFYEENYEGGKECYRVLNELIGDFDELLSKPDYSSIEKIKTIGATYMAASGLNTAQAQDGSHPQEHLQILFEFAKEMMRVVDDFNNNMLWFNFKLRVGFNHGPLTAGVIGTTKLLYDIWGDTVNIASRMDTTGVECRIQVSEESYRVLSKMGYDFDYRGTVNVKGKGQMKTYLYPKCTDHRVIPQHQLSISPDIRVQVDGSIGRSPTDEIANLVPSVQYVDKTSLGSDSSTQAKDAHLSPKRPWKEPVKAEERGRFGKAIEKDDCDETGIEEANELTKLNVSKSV

[9] = biological target: T4, POPDC3-VN / POPDC3-VC (mouse POPDC3 with a half of Venus for BiFC) (mouse) (UniProt Q9ES81); experiment: split reporter
T4 sequence: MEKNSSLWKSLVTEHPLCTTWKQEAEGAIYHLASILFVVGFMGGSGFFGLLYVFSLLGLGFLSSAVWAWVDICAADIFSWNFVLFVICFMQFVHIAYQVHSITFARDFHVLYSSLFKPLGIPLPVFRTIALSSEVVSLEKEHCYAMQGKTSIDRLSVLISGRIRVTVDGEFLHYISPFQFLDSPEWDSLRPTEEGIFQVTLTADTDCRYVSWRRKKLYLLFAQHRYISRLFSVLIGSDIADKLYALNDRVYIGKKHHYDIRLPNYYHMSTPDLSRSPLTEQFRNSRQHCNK

[10] = biological target: T5, POPDC2-VN / POPDC2-VC (mouse POPDC2 with a half of Venus for BiFC) (mouse) (UniProt Q9ES82); experiment: split reporter
T5 sequence: T2 sequence

[11] = biological target: T1, POPDC1-VN / POPDC1-VC (mouse POPDC1 with a half of Venus for BiFC) (mouse); experiment: split reporter; remark: listed apart in the source

B3: Flag-tagged AC9 (adenylyl cyclase type 9) (enzyme, UniProt O60503 1-1353)
chain: T3 chain
binding [4]: binds
binding [5]: binds
binding [6]: binds
binding [7]: binds

B4: AC9-VN / AC9-VC (AC9 with a half of Venus for BiFC), O60503 1-1353 (enzyme)
chain: T3 chain
binding [8]: binds

B5: AC9-VN / AC9-VC (AC9 with a half of Venus for BiFC) (enzyme, UniProt O60503 1-1353)
chain: T3 chain
binding [9]: binds
binding [10]: binds
binding [1]: binds
binding [11]: binds

More lines, now with the values ahead:

binding [1]: binds
B1: POPDC1-VN / POPDC1-VC (mouse POPDC1 with a half of Venus for BiFC) (protein, UniProt Q9ES83 1-358)
chain: T1 sequence

binding [2]: binds
binding [3]: binds
B2: YFP-tagged AC9 (enzyme, UniProt O60503 1-1353)
chain: T3 chain
